According to the supplement of paper PMC3334620:
Over roughly 33,000 sequences, “E-score (-0.5 to 0.5)” has its median near -0.0014; the highest 2% begin near 0.25. The list shows a part of the results.

Molecular target: T1, Cad1 (UniProt P24813)
T1 sequence: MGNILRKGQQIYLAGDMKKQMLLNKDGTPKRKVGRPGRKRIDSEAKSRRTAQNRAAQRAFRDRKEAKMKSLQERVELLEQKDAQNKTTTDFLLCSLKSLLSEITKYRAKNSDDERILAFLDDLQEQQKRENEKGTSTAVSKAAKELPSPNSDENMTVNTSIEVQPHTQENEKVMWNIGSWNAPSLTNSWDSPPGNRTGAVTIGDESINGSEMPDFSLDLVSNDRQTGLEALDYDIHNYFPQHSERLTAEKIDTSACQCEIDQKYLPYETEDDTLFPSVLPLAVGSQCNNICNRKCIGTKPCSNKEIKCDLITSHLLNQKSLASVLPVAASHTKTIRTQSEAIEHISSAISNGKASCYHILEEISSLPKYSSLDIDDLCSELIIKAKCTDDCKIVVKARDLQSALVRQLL
Assay: PBM E-score (8-mer binding enrichment) (E-score (-0.5 to 0.5)); higher = stronger / more preferred TF binding
Conditions: protein concentration: 100 nM; construct: GST-full length
Outline: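 E-scores (a modified Wilcoxon-Mann-Whitney statistic) were assigned by the Universal PBM Analysis Suite to every ungapped eight-base word pooled with its reverse complement. The input came from universal all-10-mer Agilent arrays made double-stranded by primer extension and probed with GST-tagged yeast transcription factors at about 100-200 nM. Fluorescent anti-GST detected bound protein, and masliner normalised the scans.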

Sequence | PBM E-score
AGCCATCC | -0.227
AGGCCGTC | -0.111
CGCCCAGC | 0.0197
GAGTACCC | -0.154
AGCTGGGA | -0.204
CACAGCCA | -0.153
TTGCCAAA | 0.0193
AACCCTGA | 0.106
TACAAACA | 0.239
CATGCCTA | -0.181
CCCTCGCC | -0.161
AACGCCAG | -0.0006
ATCGATTG | 0.299
GCAAGGGC | -0.125
CCGGCACC | 0.0908
CTTATGCC | 0.0332
CACGCGCG | 0.104
GTGGCAGA | -0.192
ATGTGCCG | -0.0218
ACAAGAAG | -0.0471
ATAAGAGG | 0.162
CATCCCGG | 0.0408
ACCTGTAG | -0.201
GAACATGA | -0.00823
CCGCTTAC | 0.184

Part of the list above in a different format:

| Sequence | PBM E-score |
| --- | --- |
| TTGCCAAA | 0.0193 |
| AACGCCAG | -0.0006 |
| ATAAGAGG | 0.162 |
| ACCTGTAG | -0.201 |
| CCGCTTAC | 0.184 |

More results follow.

Sequence | PBM E-score
CGAAATTA | 0.167
CGAATACC | -0.104
AGATCCAA | -0.142
TCGCGCGA | 0.308
AGAACTAG | -0.146
ATTGATCC | 0.0172
TAACGTTA | 0.0543
CGCAGAAG | 0.116
ATACCGGA | -0.0343
AGGCCGGG | -0.291
AGATCTCC | -0.0869
GGGTCGAA | -0.202
CAAGTGCG | -0.0542
ATGTGACA | 0.281
CCCAATCA | -0.164
CGTAGGTA | -0.0215
CTATCGCA | 0.0921
GCCTTGTA | -0.106
CTGTGCTA | -0.00142
AAACTCAC | -0.0266
ACGACTGC | -0.139
GAGCCACA | -0.0272
ATAGATTG | 0.0192
CGCCAAAG | -0.227
CAACACGC | 0.0436

Sequence | PBM E-score
GCTACGGA | -0.204
CGCCCATC | -0.198
CGTGAGTC | -0.223
ACGCCTAA | -0.0311
ACCCCCAA | -0.153
AGACTTCG | -0.0445
CGCGTACG | 0.178
ACTAATAA | 0.226
AAACCTCC | -0.193
AGTTCTGC | -0.0672
AGACCTTG | -0.157
CGATCTAG | -0.126
ACTCCGAT | -0.0617
ATGGGCTC | -0.063
CTAATCCC | 0.0234
CAGGCTGG | -0.25
ATCCCGGC | -0.0571
CTATCGGA | 0.0685
AAGCACAC | -0.0239
CTAGACCC | -0.162
TGTTTCAA | 0.0302
ATTTCCGA | 0.0803
GCAATATA | 0.179
AAGTCTGC | 0.00888
AAAGCGCG | 0.0998

Sequence | PBM E-score
CTGGAGTA | 0.00683
CTGTGCGA | -0.0444
AAACAGCA | 0.0962
AACAAAGA | 0.0238
AACGTGAA | -0.0752
GGTCATAC | -0.0427
GCCCCTCA | -0.286
ATCAGCGA | -0.0209
CTTATGGA | -0.156
AATAGCTC | -0.322
ATCGATCG | 0.188
ATGATGGA | -0.00401
CGACACGC | 0.11
CAAGCTTC | -0.198
ACGGAACA | 0.0866
ACCGGCTG | -0.193
GCGACGTA | -0.0212
ACCGCGAA | 0.166
CATACCCC | -0.217
GTTATCAA | 0.129
CTTACTGC | 0.0223
CCAATAAC | 0.123
ACGGATGC | 0.0923
TGGATCAA | -0.0518
ACCCCCGA | -0.293

Exported as tab-separated lines: part of the list above.
Sequence	PBM E-score
CGCAGAAG	0.116
AAACTCAC	-0.0266
ATAGATTG	0.0192
AACGTGAA	-0.0752
GCCCCTCA	-0.286

(cont.)

Sequence | PBM E-score
GCATACCA | 0.0867
ACCCATGA | -0.0855
GGACGTAA | -0.0957
GGGAACTA | -0.0297
CACGGAGC | -0.118
CCAAATCA | -0.041
GAGCCCGC | -0.178
ATCGCATC | 0.0114
GGCTCCAA | 0.0549
AGAGTGGC | -0.00676
GATGAAGA | -0.109
ATAGACCC | 0.0282
CAGTCGAC | 0.188
AGTCTGTA | -0.174
AAACTAAA | 0.141
ACAGCTAC | -0.0972
CTAATGTA | 0.0718
GAAGAAAC | -0.0929
GGCTAACC | -0.0801
GCTCGTCA | -0.112
TGTAAACA | 0.00733
CATCGCTA | 0.135
CCGGAAAG | 0.101
ATAACGCA | 0.0718
GTAGGTAA | 0.0138

Sequence | PBM E-score
TAACCACA | -0.117
ACGGTCAT | 0.061
CGGGAAAG | -0.163
ACATGTAC | -0.0258
CGCATTTC | 0.151
CTCTGACC | -0.159
CTTCTGTC | -0.0626
AGTAGACG | -0.00986
ACGCTATC | -0.00432
AATACTAC | 0.202
CCTCCGTC | -0.158
GAAGTGTA | -0.155
CCCAGGAC | -0.299
GATTCCAA | -0.00691
GCGTGCCA | 0.0968
ATACTATC | 0.0513
TATGACCA | 0.0897
CGTGTAAG | 0.108
ACAGGAGC | 0.0454
CTGTTTTC | 0.0989
AACCTCTA | -0.12
TGTCCGAA | 0.266
AGGTTGAG | -0.168
ATAATGAC | -0.119
CTGCGCCA | 0.00034

Sequence | PBM E-score
AACTTCGC | 0.149
CTTACTCA | 0.208
AGCTCAAT | 0.033
AGTAGAGC | -0.225
CCAGCAGG | -0.188
GTGCGGTA | 0.121
AGGTCTGC | -0.0819
ATAGAAAC | -0.00162
AACGTATC | -0.0638
CCGGTACC | -0.181
AACTGGAG | -0.162
GTTTAAAC | 0.238
ACAGGACG | -0.0894
GTAAGGAC | -0.19
GTAACGGA | 0.223
AAGAGCTT | -0.0311
AATACATG | 0.0416
CGATATTC | 0.173
ACCTCTAA | -0.14
AGGCTGGG | -0.182
ACGACCAG | 0.0402
TGTATTAA | -0.00939
